Measurements reported in PubChem BioAssay AID652243 (Drosophila RNAi Screening Center, 2013)

Screen: 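Fly regulators of androgen-dependent reporter output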 (primary screen)
System: Drosophila S2R+ cells
Reagent: long dsRNA against Drosophila genes
Timing: 72 h (48 h, then 24 h hormone)
Treatment: synthetic androgen R1881 at 10 nM for 24 h
Measured: 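Firefly light from an androgen-responsive reporter and Renilla control light per well, raw and unnormalised, for each of two replicates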
Reading the numbers: firefly reporter light: higher = more light from androgen-responsive reporter; Renilla control light: higher = more constitutive control signal (cell number, transfection)
Active means: 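Hit when the log firefly-to-Renilla ratio dropped or increased by a fixed fold versus the mean of GFP or LacZ controls across duplicate plates; lowering cut given as 1.5 and as 3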
Calls: active = hit: reporter lowered or raised; inactive = no hit
The deposit covers about 24,000 reagents; shown is a random part of those with a known target gene and a result. Of all reagents, 246 (1%) were called active. 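Plates not normalised; calls are printed but the firefly/Renilla ratio behind them is not deposited; fold cut for lowering reported inconsistently.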 Raw values are not corrected between plates. Names joined by + are all predicted targets of the reagent. No sequences are given here. Not stated in the record: the amount of reagent.

| gene | amplicon | firefly reporter light, replicate 1 | firefly reporter light, replicate 2 | Renilla control light, replicate 1 | Renilla control light, replicate 2 | activity call |
| --- | --- | --- | --- | --- | --- | --- |
| Acsx4 | DRSC14311 | 2.13e5 | 2.36e5 | 2.64e6 | 2.57e6 | inactive |
| Acsx4 | DRSC27646 | 2.37e5 | 2.98e5 | 5.54e5 | 8.01e5 | inactive |
| LManIII | DRSC03221 | 1.36e5 | 2.14e5 | 9.66e5 | 1.04e6 | inactive |
| LManIII | DRSC29001 | 4.28e5 | 3.35e5 | 1.49e6 | 1.27e6 | inactive |
| Sgsh | DRSC14771 | 2.24e5 | 1.35e5 | 2.44e6 | 1.87e6 | inactive |
| CG31687 + Cdc23 | DRSC23052 | 4.80e5 | 6.85e5 | 1.08e6 | 1.14e6 | inactive |
| Meltrin | DRSC16274 | 71341 | 98109 | 6.78e5 | 1.03e6 | inactive |
| Meltrin | DRSC21693 | 5.22e5 | 6.29e5 | 3.23e6 | 2.02e6 | inactive |
| CG9586 | DRSC03270 | 2.26e5 | 2.02e5 | 2.27e6 | 2.03e6 | inactive |
| CG9586 | DRSC30001 | 2.78e5 | 3.17e5 | 6.72e5 | 8.27e5 | inactive |
| CG8993 | DRSC08616 | 74453 | 65890 | 1.08e6 | 1.11e6 | inactive |
| CG8993 | DRSC27318 | 2.30e5 | 2.25e5 | 7.95e5 | 6.02e5 | inactive |
| CG15812 | DRSC08479 | 1.45e5 | 1.17e5 | 1.16e6 | 1.09e6 | inactive |
| indra | DRSC08558 | 1.31e6 | 1.27e6 | 1.58e6 | 1.58e6 | inactive |
| indra | DRSC26845 | 5.37e5 | 4.70e5 | 1.16e6 | 9.80e5 | inactive |
| CG41561 | DRSC38629 | 9.06e5 | 7.38e5 | 2.09e6 | 2.38e6 | inactive |
| beat-Ia | DRSC03489 | 1.04e5 | 1.64e5 | 1.04e6 | 1.86e6 | inactive |
| beat-Ia | DRSC25576 | 7.63e5 | 1.09e6 | 9.68e5 | 1.10e6 | inactive |
| Wdr82 | DRSC02595 | 3.78e5 | 3.27e5 | 3.79e6 | 2.75e6 | inactive |
| Wdr82 | DRSC21723 | 5.80e5 | 6.54e5 | 2.55e6 | 3.22e6 | inactive |
| CG32295 | DRSC23259 | 9.41e5 | 8.48e5 | 9.53e5 | 1.17e6 | inactive |
| TBC1D5 | DRSC16421 | 79017 | 57757 | 3.25e5 | 4.66e5 | inactive |
| TBC1D5 | DRSC27219 | 2.57e5 | 1.96e5 | 5.03e5 | 2.14e5 | inactive |
| Pino | DRSC00038 | 20330 | 20357 | 1.10e5 | 1.26e5 | inactive |
| Pino | DRSC00662 | 1.16e6 | 1.11e6 | 3.05e6 | 2.64e6 | inactive |
| Ns4 | DRSC03199 | 8.25e5 | 1.29e6 | 2.27e6 | 3.19e6 | inactive |
| Ns4 | DRSC27230 | 3.03e5 | 2.63e5 | 6.08e5 | 5.21e5 | inactive |
| RpS13 | DRSC03419 | 3.88e5 | 5.14e5 | 1.10e6 | 1.19e6 | inactive |
| RpS13 | DRSC28558 | 1.88e5 | 3.70e5 | 6.89e5 | 1.01e6 | inactive |
| CG6136 | DRSC15975 | 1.70e5 | 1.38e5 | 8.61e5 | 6.32e5 | inactive |
| CG31111 | DRSC14649 | 1.44e5 | 1.13e5 | 1.74e6 | 1.58e6 | inactive |
| CG15745 (retired record) | DRSC19711 | 5.12e5 | 4.45e5 | 3.36e6 | 3.87e6 | inactive |
| TkR86C | DRSC16880 | 2.41e5 | 2.52e5 | 2.76e6 | 2.83e6 | inactive |
| CG14841 | DRSC14965 | 1.44e5 | 93203 | 1.90e6 | 1.83e6 | inactive |
| CG14841 | DRSC27235 | 1.72e5 | 1.91e5 | 4.93e5 | 2.94e5 | inactive |
| Pi3K68D | DRSC11253 | 1.24e6 | 1.21e6 | 2.04e6 | 1.52e6 | inactive |
| Pi3K68D | DRSC28860 | 3.33e5 | 4.38e5 | 1.34e6 | 1.01e6 | inactive |
| Pi3K68D | DRSC37024 | – | – | – | – | inactive |
| CG15579 | DRSC18067 | 4.51e5 | 4.36e5 | 5.42e6 | 4.33e6 | inactive |
| CG34432 | DRSC38678 | 1.06e6 | 9.06e5 | 1.77e6 | 2.05e6 | inactive |
| uncNacbeta | DRSC00326 | 1.38e5 | 1.30e5 | 9.54e5 | 1.05e6 | inactive |
| fusl | DRSC02351 | 2.99e5 | 4.96e5 | 7.49e5 | 7.52e5 | inactive |
| fusl | DRSC28283 | 4.18e5 | 5.11e5 | 1.05e6 | 1.43e6 | inactive |
| CG10492 | DRSC24982 | 1.04e6 | 8.53e5 | 8.86e5 | 5.68e5 | inactive |
| CG43367 + asRNA:CR32252 | DRSC21715 | 5.19e5 | 5.68e5 | 9.19e5 | 1.43e6 | inactive |
| olf186-M | DRSC07657 | 86807 | 54129 | 1.22e6 | 1.22e6 | inactive |
| CG3301 | DRSC15471 | 78186 | 87860 | 5.77e5 | 6.10e5 | inactive |
| CG42288 | DRSC06381 | 1.04e5 | 1.49e5 | 1.99e6 | 1.99e6 | inactive |
| CG42288 | DRSC26648 | 2.88e5 | 2.99e5 | 9.38e5 | 1.08e6 | inactive |
| CG42288 | DRSC39028 | 7.38e5 | 6.81e5 | 1.73e6 | 1.73e6 | inactive |
| Sms | DRSC10408 | 1.79e5 | 1.88e5 | 1.99e6 | 1.87e6 | inactive |
| CR18275 | DRSC18151 | 3.19e5 | 3.06e5 | 4.14e6 | 3.36e6 | inactive |
| CR18275 | DRSC28716 | 4.16e5 | 4.21e5 | 1.67e6 | 1.84e6 | inactive |
| luna | DRSC05253 | 2.02e5 | 1.80e5 | 6.60e5 | 6.03e5 | inactive |
| luna | DRSC24992 | 2.96e5 | 3.61e5 | 5.49e5 | 5.86e5 | inactive |
| CG14367 | DRSC14829 | 1.43e5 | 2.42e5 | 2.52e6 | 3.10e6 | inactive |
| CG32198 | DRSC09553 | 1.71e5 | 2.55e5 | 2.24e5 | 2.47e5 | inactive |
| CG32198 | DRSC27630 | 2.71e5 | 2.21e5 | 4.98e5 | 8.83e5 | inactive |

A few values from the list.
CG42288 [DRSC39028], activity call = inactive
For “firefly reporter light, replicate 1”, CG15812 [DRSC08479] has 1.45e5
Under “firefly reporter light, replicate 2”, Sms [DRSC10408] shows 1.88e5
TBC1D5 [DRSC27219], Renilla control light, replicate 2 = 2.14e5
Ns4 [DRSC27230], firefly reporter light, replicate 2 → 2.63e5
Under “Renilla control light, replicate 1”, LManIII [DRSC03221] reads 9.66e5
